Literature values as cited in patent US5284847A, “Thieno pyrazine diones, their preparation and use” (Novo Nordisk A/S, priority 1991, dated 1994).
At least one compound was matched to its structure with a doubt left.

Test system: glycine site (modulatory site allosterically coupled to the NMDA ionophore complex)
Conditions: literature, in words; cited from earlier work

**Q.** Which “activity at the glycine site” value does the source give for `NC1(C(=O)O)CC1` [1-aminocyclopropanecarboxylate] here?
**A.** partial agonists
